Experimental data from PMC5595435.
Results are given in words; binding and its absence hold for the method and conditions named. In cells and extracts the contact can be indirect. Here binding means that the protein was enriched with, or labelled near, the bait; the list need not be complete.

By UniProt entry, the sequences of proteins in these tests, tags left out.
UniProt P51114: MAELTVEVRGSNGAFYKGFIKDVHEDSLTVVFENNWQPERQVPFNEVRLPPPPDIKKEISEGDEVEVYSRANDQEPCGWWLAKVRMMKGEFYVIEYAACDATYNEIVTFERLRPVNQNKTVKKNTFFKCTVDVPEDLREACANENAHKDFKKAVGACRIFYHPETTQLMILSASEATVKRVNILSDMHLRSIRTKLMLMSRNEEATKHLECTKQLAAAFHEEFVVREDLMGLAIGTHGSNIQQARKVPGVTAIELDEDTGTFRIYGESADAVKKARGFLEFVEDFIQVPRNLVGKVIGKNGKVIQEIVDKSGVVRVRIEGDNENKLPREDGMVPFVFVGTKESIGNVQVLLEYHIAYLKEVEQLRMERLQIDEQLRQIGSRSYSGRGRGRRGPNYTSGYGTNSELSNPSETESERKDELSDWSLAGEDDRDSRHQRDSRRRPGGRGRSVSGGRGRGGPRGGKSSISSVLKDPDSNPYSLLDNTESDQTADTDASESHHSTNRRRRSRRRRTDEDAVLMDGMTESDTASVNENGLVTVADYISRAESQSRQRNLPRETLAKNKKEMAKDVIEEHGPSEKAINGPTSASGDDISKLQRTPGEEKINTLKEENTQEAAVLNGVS
UniProt Q08945: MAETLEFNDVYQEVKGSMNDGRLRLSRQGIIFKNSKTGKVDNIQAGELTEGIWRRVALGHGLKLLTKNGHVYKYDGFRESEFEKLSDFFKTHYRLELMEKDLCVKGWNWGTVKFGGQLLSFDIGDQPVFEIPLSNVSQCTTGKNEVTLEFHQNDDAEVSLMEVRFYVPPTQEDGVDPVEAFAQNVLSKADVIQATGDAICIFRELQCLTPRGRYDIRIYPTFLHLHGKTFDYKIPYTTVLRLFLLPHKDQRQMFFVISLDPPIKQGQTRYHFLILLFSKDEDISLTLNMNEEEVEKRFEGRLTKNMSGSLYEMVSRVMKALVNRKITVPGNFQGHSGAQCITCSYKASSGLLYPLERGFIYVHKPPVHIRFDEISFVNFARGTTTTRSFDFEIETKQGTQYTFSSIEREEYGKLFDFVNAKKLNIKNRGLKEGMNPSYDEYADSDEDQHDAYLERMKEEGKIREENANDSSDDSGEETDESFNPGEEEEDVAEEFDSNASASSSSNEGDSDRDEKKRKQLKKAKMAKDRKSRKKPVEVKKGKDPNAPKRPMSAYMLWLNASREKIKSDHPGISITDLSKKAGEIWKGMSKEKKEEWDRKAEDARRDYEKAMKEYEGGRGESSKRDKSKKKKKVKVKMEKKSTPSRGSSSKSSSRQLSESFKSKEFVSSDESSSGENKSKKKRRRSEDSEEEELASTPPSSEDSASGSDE
UniProt Q02880: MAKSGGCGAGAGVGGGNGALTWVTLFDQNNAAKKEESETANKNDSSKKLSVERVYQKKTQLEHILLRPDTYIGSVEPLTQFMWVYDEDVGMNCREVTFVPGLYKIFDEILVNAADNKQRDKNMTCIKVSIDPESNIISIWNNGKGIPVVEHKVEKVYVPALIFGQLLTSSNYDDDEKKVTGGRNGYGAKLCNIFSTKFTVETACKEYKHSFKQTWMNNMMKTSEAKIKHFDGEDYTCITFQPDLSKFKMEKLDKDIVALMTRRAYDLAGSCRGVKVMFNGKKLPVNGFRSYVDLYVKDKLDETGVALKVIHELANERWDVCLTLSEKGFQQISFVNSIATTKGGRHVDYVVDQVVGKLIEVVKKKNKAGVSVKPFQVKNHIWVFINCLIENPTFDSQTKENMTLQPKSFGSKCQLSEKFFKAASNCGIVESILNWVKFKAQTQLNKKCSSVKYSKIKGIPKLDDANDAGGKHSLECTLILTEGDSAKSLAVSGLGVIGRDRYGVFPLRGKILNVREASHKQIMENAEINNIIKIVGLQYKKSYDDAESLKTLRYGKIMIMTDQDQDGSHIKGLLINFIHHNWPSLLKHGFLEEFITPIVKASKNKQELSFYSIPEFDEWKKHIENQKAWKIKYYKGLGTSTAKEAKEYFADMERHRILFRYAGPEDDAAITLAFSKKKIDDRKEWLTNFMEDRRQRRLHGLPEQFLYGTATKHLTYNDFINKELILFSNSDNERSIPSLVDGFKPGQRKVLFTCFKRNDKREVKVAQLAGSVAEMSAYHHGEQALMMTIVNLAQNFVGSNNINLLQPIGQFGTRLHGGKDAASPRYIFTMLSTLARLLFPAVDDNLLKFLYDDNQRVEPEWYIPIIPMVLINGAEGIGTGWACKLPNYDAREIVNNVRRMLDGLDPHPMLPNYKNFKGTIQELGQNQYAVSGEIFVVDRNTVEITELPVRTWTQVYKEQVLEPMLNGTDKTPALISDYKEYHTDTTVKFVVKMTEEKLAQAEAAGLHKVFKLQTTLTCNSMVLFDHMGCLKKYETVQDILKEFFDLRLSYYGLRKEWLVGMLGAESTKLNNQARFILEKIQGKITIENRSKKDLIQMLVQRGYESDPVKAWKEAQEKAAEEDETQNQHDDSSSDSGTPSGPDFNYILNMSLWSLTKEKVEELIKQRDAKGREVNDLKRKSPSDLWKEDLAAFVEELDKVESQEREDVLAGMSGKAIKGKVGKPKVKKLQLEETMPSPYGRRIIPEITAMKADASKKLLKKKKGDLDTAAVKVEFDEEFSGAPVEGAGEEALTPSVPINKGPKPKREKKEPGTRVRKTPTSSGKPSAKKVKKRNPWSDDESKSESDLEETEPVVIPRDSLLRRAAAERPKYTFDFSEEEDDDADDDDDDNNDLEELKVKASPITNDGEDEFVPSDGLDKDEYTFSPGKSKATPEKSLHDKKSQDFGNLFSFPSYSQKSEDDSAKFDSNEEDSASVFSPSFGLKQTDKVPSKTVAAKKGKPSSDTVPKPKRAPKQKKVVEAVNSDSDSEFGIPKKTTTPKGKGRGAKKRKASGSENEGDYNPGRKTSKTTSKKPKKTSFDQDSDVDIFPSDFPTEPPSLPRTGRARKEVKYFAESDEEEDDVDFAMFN
UniProt Q9NYF8: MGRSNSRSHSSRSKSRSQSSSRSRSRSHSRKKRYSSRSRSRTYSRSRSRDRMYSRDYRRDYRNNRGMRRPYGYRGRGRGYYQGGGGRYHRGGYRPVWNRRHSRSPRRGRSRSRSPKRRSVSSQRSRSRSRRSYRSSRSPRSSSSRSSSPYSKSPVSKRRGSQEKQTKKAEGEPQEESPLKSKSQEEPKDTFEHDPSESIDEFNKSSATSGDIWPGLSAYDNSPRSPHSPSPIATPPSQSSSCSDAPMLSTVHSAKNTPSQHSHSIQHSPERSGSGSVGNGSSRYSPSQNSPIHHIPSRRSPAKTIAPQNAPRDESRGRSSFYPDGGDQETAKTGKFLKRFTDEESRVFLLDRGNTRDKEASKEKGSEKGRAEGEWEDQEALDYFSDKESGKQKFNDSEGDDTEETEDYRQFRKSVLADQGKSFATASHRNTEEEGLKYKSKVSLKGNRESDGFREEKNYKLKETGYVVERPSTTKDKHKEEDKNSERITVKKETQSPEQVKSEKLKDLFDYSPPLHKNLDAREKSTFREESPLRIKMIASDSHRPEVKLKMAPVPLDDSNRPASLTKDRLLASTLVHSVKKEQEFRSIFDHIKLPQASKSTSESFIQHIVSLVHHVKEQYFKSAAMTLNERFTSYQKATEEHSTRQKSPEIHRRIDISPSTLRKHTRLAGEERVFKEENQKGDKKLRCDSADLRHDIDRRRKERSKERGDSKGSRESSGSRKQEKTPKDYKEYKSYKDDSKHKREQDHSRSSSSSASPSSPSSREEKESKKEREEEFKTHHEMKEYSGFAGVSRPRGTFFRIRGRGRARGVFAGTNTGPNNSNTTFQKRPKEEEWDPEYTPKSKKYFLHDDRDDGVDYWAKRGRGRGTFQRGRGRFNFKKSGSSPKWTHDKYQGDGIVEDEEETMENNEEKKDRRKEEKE

Each substance was assayed against FXR1 (Fragile X-related Protein 1), endogenous (human (endogenous in H358 and KATOIII)) (UniProt P51114) (assay: affinity purification with mass spectrometry; ChIP-MS: formaldehyde cross-linked, micrococcal nuclease digested single-nucleosome lysate of H358 and KATOIII cells; anti-FXR1 antibody or IgG control, Protein G magnetic beads; SDS-PAGE, nanoLC-MS/MS).

binding, binds:
FACT80 (from UniProt Q08945 1-709)
TOP2B (from UniProt Q02880 1-1626) (enzyme)
BTF (from UniProt Q9NYF8 1-920)
